PubChem BioAssay AID1347423 (Functional Genomics Laboratory (NCATS/FGL), 2020)
Out of some 52,000 sequences screened, about 210 (0.4%) were called active.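 Rule for the calls: active = gene whose silencing raises cell survival under the drug, median off-target-corrected z-score across its silencing RNAs 2 or more; inactive = the rest.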 The list shows a part of the results.

Assay: Resistance to Poly (ADP-Ribose) Polymerase inhibitor: Gene Identification via Genome-wide siRNA Screen
Conditions: mouse BRCA2 R2336H ES cells, olaparib, CellTiter-Glo viability; active compounds read high
Outline: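 Mouse BRCA2 R2336H ES cells were reverse-transfected with siRNA (20 nM final), treated at 48 h with 500 nM olaparib, and read by CellTiter-Glo after 72 h. Scores: MAD-based z per siRNA, median per gene, seed off-target correction.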
For CCUGGUCAGUCUUACUUCUTT against Rbks, the z-score was inactive: -0.288.
With GGAAGUGUAAUGGAAGCAATT against Kdt1 the z-score was inactive: -1.13.
In the case of GCCACCACAAUCAACAUGCTT against Ifitm1, the z-score is reported as inactive: -0.0049.
For UUAUUGAGGCCGGGCUCAUTT against AW146299, the z-score was inactive: -0.67.
With GGAUCUCUUUCUUCACAGUTT against Pcdhgb7 the z-score was inactive: 0.468.
With GGUCAAAGUACUGAAGCUUTT against Mapre1 the z-score was inactive: -2.19.
With GGCAUCAACUUCAUGCUGATT against Olfr535 the z-score was inactive: -0.17.
With GGGAUGCAGUGACCAUAGATT against Aldh3b1 the z-score was inactive: -0.567.
For GGAGACAACCUGUACUCAGTT against Zfp352, the z-score was inactive: -0.118.
For GCAGGAAGGAGAUUUUAUATT against Tbpl1, the z-score was inactive: -0.172.
For GGAGACAGCUCAAAAAGAATT against AI462438, the z-score was inactive: -0.0595.
With GCCAACCAUUAAGCUACUATT against Gyg1 the z-score was inactive: -2.5.
For CGCAAAUCUCAGGAAAGAATT against Anxa9, the z-score was inactive: -0.746.
For GGUAAGAUUAAAAGACUCATT against Cpsf2, the z-score was inactive: -0.342.
In the case of CGGCUCGUAGUUUAUUAAATT against Ccnk, the z-score is reported as inactive: -1.74.
With GGAACACCACCUUAGAGAUTT against Hnrpa2b1 the z-score was inactive: 0.646.
For GCCGUCCAACACUUGAUUGTT against Rttn, the z-score was inactive: -0.989.
In the case of GGUCCCAGGUACAACAAAATT against V1rg2, the z-score is reported as inactive: 1.92.
For GGCCUAAUUCCACCUUUGCTT against Etv4, the z-score was inactive: -1.27.
In the case of CGUAAACAUUUCCUUCUACTT against Dmbt1, the z-score is reported as inactive: 2.29.
For GGAGAUCAUUGAAUACUACTT against Sec14l1, the z-score was inactive: -0.987.
With GCUUUAGAACAGAGGGUUATT against Scd4 the z-score was inactive: -1.48.
In the case of GGAAGUUGUGGAAGAAGACTT against Gcipip, the z-score is reported as inactive: -2.63.
In the case of GGCAGAGAAGGAGAAACAGTT against Hmg20b, the z-score is reported as inactive: -1.14.
With CCUUUGACGGCCAUGAGUATT against Muc6 the z-score was inactive: -1.73.
For GGUUUCUGUGCAUUAGGAATT against Slc35e3, the z-score was inactive: 1.23.
For GGAGACUUAUAACAUGUUUTT against Habp2, the z-score was inactive: -0.361.
In the case of GGGUGGAGAAAUUUUAAUGTT against Sart2, the z-score is reported as inactive: 2.28.
With GGAAGUAAAAUUUGACAUGTT against Il1a the z-score was inactive: 0.418.
In the case of GGCCCAGAUAAAUAACAUGTT against Kpna1, the z-score is reported as inactive: -0.378.
With GGGUGCUCUGGACAUGUUGTT against Dcxr the z-score was inactive: 0.539.
With “GGGUAUUAAGAGCCAACUGTT against 2400002F11Rik” the z-score was inactive: -0.9.
In the case of GCAUCUACUCCCUAUAGACTT against Nin, the z-score is reported as inactive: 0.371.
In the case of UUCUACUGGGCUUAACCAGTT against Olfr1032, the z-score is reported as inactive: 0.0145.
With “CCUCUUGAGGUCUCGUCAATT against 4930412F15Rik” the z-score was inactive: 1.33.
For GCCUGGAAUCUCUUCAUGUTT against Pde3a, the z-score was inactive: -0.903.
For GGUCUUCACUGUCGACUACTT against Cpne7, the z-score was inactive: -0.192.
For CCAAUGGUGUGGUCUGUAATT against Olfr572, the z-score was inactive: -2.96.
For GCAGUCUCACCUGAACAGATT against Spinlw1, the z-score was inactive: -0.0372.
In the case of GGACAUUUUAGUUGUCUUGTT against Slc38a4, the z-score is reported as inactive: 0.422.
With “CCUGUAAAACAUUGUGAACTT against 1110013L07Rik” the z-score was inactive: 0.269.
For GCCCUAUAUAUCAUUCUAGTT against Rhoa, the z-score was inactive: -0.352.
For GGAAGACAUAUUAACUACUTT against Gpr37, the z-score was inactive: -0.148.
For GGAUAAUUUUGGAAGCAGATT against Rheb, the z-score was inactive: -1.57.
With GCCAUACCUUCAACUGUCGTT against Ncoa2 the z-score was inactive: -1.27.
For GCCACUGAAAGAUAAAGCATT against Mtap2, the z-score was inactive: 0.448.
In the case of “GAAUAGAGUCAAUGGAUAUTT against F830003B07”, the z-score is reported as inactive: -1.03.
With GGCUCUGUGGCAAUCUUGUTT against Olfr1225 the z-score was inactive: 0.562.
With GGAAGAUAGGAGCUACAAATT against Mr1 the z-score was inactive: -1.38.
In the case of GGUGAGCUGAAAUGAGGUGTT against H2-DMb1, the z-score is reported as inactive: -0.143.
With GUCUAGAAUAAUUGGAGGATT against Klk27 the z-score was inactive: -0.63.
With CGAUUCAGAUUGCACUUGUTT against Katnb1 the z-score was inactive: -0.226.
With “GCUAUGCUGAGGAAAAAAATT against 2310056K19Rik” the z-score was inactive: -0.113.
For “GGUUUUUUACACAACAUGCTT against 1110067D22Rik”, the z-score was inactive: 0.0564.
In the case of GGAGGUCAUCAACGUGCUATT against Nucb1, the z-score is reported as inactive: -0.492.
With CGGUUUCUUACCAGCAAUUTT against Mgmt the z-score was inactive: -0.0333.
For GGCAGCAAGGAAACUAUUATT against Kpna3, the z-score was inactive: -2.49.
In the case of “GCAAGACGGUGAUUGUAACTT against 1810010O14Rik”, the z-score is reported as inactive: -0.42.
In the case of GAAAGAAACGGCAGAUUGCTT against V2r12, the z-score is reported as inactive: 0.475.
For CGACACCAUUCAGAUUGAUTT against Rps4x, the z-score was inactive: -1.06.
With CGGCUAAGUUGUGCGAUGUTT against C79267 the z-score was inactive: -1.64.
With GGACUUCUUCGAUUGUUCUTT against Chchd1 the z-score was inactive: -1.28.
In the case of CGAGAAGAUGUGUAUGUCGTT against Mkrn2, the z-score is reported as inactive: -0.571.
In the case of GGCCUUUAUCCGGAACAUATT against Zfp454, the z-score is reported as inactive: -0.429.
For GCUUUUCAGUCUCAUAGUGTT against Huwe1, the z-score was inactive: -1.98.
With GCGGUGACAUCAUGAUCCATT against Bop1 the z-score was inactive: -3.05.
With GGGAUUAAUAUCAUACCGATT against Slc30a5 the z-score was inactive: 0.499.
